Laboratory results: PubChem BioAssay AID1487 (National Center for Advancing Translational Sciences (NCATS), 2009)
Some of the results follow. These are further read-outs of the screen, such as a control signal, another cell line or another target. No call is given for them. Most of these compounds were active or inconclusive in the main read-out, so they are no random draw. Words in brackets tell the shape of the fitted curve; partial curves, single points and poor fits give uncertain potencies.

Assay: qHTS Assay for Modulators of Lamin A Splicing
Conditions: HeLa LMNA splicing GFP/RFP minigene ratio, 48 h
Procedure, shortened: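 S3 HeLa cells stably expressing lamin A-EGFP splicing minigene plus DsRed2, 600 cells/well, 48 h compound exposure at 37C. Laser-scanning cytometry; analysed as GFP (500-530 nm)/RFP (575-640 nm) total intensity ratio; 0.5% DMSO vehicle.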

[1] = measured here: GFP splicing reporter channel
[2] = measured here: RFP viability control channel

Cc1ccc(NC(=O)COC(=O)CN2C(=O)c3ccccc3C2=O)cc1S(=O)(=O)N(C)C
AC50 [1]: 5.62 µM [rising, partial curve]

CN1/C(=C\C=O)C(C)(C)c2ccccc21
AC50 [1]: 1.58 µM [falling, partial curve]
AC50 [2]: 0.251 µM [falling, full curve]

N#Cc1c(C(F)(F)F)cc(-c2ccc(F)cc2)nc1SCC(=O)O
AC50 [1]: 0.282 µM [falling, full curve, poor fit]
AC50 [2]: 17.8 µM [falling, partial curve, poor fit]

C[C@H]1Cc2c(COc3ccccc3)nc3c(c2CO1)CN(C(=O)Nc1cccc(C#N)c1)CC3
AC50 [2]: 0.000891 µM [falling, full curve, poor fit]

CCc1c(C)sc(NC(=S)Nc2cccnc2)c1C(=O)OC
AC50 [2]: 14.1 µM [rising, single point]

CC1(C)CC(NC(=O)COc2ccccc2Cl)CC(C)(C)N1
AC50 [1]: 0.00794 µM [rising, full curve, poor fit]

CCOc1ccccc1CNC(=O)Cn1c(=O)c2cccn2c2ccc(F)cc21
AC50 [2]: 17.8 µM [rising, single point]

O=C(CSc1nc(Cc2ccccc2)nc2ccccc12)c1ccc2c(c1)OCCO2
AC50 [2]: 14.1 µM [rising, partial curve]

CCCCCC/C(=N/O)c1ccccn1
AC50 [1]: 2.82 µM [rising, full curve]
AC50 [2]: 11.2 µM [rising, partial curve]

Cc1nn(-c2ccccc2)c2c1C(O)n1c(nc3ccccc31)S2 (centres undefined)
AC50 [2]: 35.5 µM [rising, single point]

Cc1ccc(-n2cc3c(-c4cccc(Br)c4)nnc(C)c3n2)cc1
AC50 [1]: 20 µM [rising, partial curve, poor fit]
AC50 [2]: 14.1 µM [rising, partial curve]

CCN(CC)S(=O)(=O)c1ccc(/C(O)=C(\C#N)c2nc3ccccc3n2C)cc1
AC50 [2]: 14.1 µM [rising, partial curve, poor fit]

Cc1cc(OC(C)C(=O)N2CCN(CCc3ccccn3)CC2)ccc1Cl (centres undefined)
AC50 [2]: 0.02 µM [falling, full curve, poor fit]

Cc1oc(-c2ccc(Cl)cc2)nc1CN1CCC(C(=O)N2CCN(Cc3ccccc3)CC2)CC1
AC50 [1]: 35.5 µM [rising, single point]
AC50 [2]: 35.5 µM [rising, single point]

CCOc1ccccc1C(N)=O
AC50 [1]: 12.6 µM [falling, single point]

CC(C)N(Cc1ccccc1)C(=O)c1cc2ccc3cccnc3c2[nH]1
AC50 [1]: 17.8 µM [falling, partial curve, poor fit]

Oc1ccc(Nc2nc(-c3ccc(O)cc3)cs2)cc1
AC50 [2]: 7.94 µM [rising, partial curve]

COc1cccc(C(c2sc3nc(-c4ccco4)nn3c2O)N2CCCC2)c1 (centres undefined)
AC50 [1]: 0.0158 µM [falling, full curve, poor fit]
AC50 [2]: 0.0126 µM [falling, full curve, poor fit]

COCCCn1c(SCC(=O)NCc2ccco2)nc2sc3c(c2c1=O)CCC3
AC50 [2]: 35.5 µM [rising, single point]

C=CCc1cc(C(=O)N2CCCCC2)ccc1O
AC50 [2]: 35.5 µM [rising, single point]

CCOc1ccc(/C=N/NC(=S)Nc2c(C)cccc2C)cc1
AC50 [2]: 14.1 µM [rising, single point]

COc1cccc(C2=NOC(C(=O)NCc3ccco3)C2)c1 (centres undefined)
AC50 [1]: 35.5 µM [falling, single point]
AC50 [2]: 35.5 µM [falling, single point]

COc1ccc(NC(=O)c2c(NCc3cccs3)sc3c2CCCCC3)cc1
AC50 [2]: 12.6 µM [rising, partial curve]

Cc1ccc2c(c1)nnn2C1CCN(C(=O)c2cccs2)CC1
AC50 [1]: 11.2 µM [rising, partial curve, poor fit]
AC50 [2]: 11.2 µM [rising, partial curve, poor fit]

CC(C)Oc1cccc(C(=O)NC(=S)NCc2cccnc2)c1
AC50 [2]: 15.8 µM [rising, partial curve, poor fit]

O=C(c1ccccc1Br)N1CCC(c2nc3ccccc3s2)CC1
AC50 [1]: 31.6 µM [falling, single point]
AC50 [2]: 35.5 µM [falling, single point]

O=C(/C=C/c1ccc(Cl)cc1Cl)Nc1ccncc1
AC50 [2]: 14.1 µM [rising, partial curve]

COc1cccc(OCCNc2cc(N3CCOCC3)ccc2[N+](=O)[O-])c1
AC50 [2]: 14.1 µM [rising, partial curve]

COC(=O)c1cc(N2CCN(C)CC2)nc2ccccc12
AC50 [1]: 0.0158 µM [falling, full curve, poor fit]

CN(c1cccc(Cl)c1)S(=O)(=O)c1cccc(C(=O)Nc2ccc3c(c2)CCC3)c1
AC50 [1]: 12.6 µM [rising, single point]
AC50 [2]: 12.6 µM [rising, partial curve]

Cc1ccc(N2C(=O)/C(=C/c3cccnc3)SC2=S)cc1
AC50 [2]: 7.94 µM [rising, full curve, poor fit]

O=C(C1CC1)N1N=C2CCCCC2C1(O)C(F)(F)F (centres undefined)
AC50 [1]: 0.00316 µM [rising, full curve, poor fit]

O=C(Nc1cc(SCCO)cc([N+](=O)[O-])c1)c1ccc(Br)o1
AC50 [1]: 14.1 µM [rising, partial curve]
AC50 [2]: 15.8 µM [rising, partial curve]

N#Cc1nc(Cc2ccccc2)oc1NCc1ccccc1
AC50 [2]: 35.5 µM [rising, single point]

COc1ccccc1NS(=O)(=O)c1ccc(Br)s1
AC50 [2]: 35.5 µM [falling, single point]

Cc1ccc(C(=O)C[n+]2ccc(Cc3ccccc3)cc2)cc1
AC50 [2]: 0.0708 µM [falling, full curve, poor fit]

O=C(CNc1cccc(Cl)c1)c1ccc(Cl)cc1
AC50 [1]: 31.6 µM [falling, single point]
AC50 [2]: 25.1 µM [falling, partial curve]

CC(C)[C@H](NC(=O)c1ccccc1)C(=O)OCc1nc2scc(-c3ccccc3)c2c(=O)[nH]1
AC50 [2]: 12.6 µM [rising, single point]

CCCCOc1ncnc2c1[nH]c1ccc(F)cc12
AC50 [1]: 2 µM [rising, partial curve, poor fit]
AC50 [2]: 3.98 µM [rising, partial curve]

COC(=O)CCC(=O)OC1(C)C(=O)C=C2C=C(C3CC3)N(c3ccc(CO)cc3)C=C2C1=O (centres undefined)
AC50 [1]: 1.26 µM [rising, partial curve]

CCC(CC)C(=O)Nc1nnc(SCc2cc(=O)c3ccccc3[nH]2)s1
AC50 [1]: 10 µM [falling, partial curve, poor fit]

NC(=O)c1ccsc1NC(=O)c1ccc(S(=O)(=O)N2CCCC2)cc1
AC50 [1]: 1.26 µM [rising, single point]

CCc1cccc(CC)c1NC(=S)NCc1ccc2[nH]c(C)cc2c1
AC50 [2]: 35.5 µM [rising, single point]

O=C1CCCC(O)=C1C(C#Cc1ccccc1)C1=C(O)CCCC1=O
AC50 [2]: 11.2 µM [rising, partial curve, poor fit]

O=S(=O)(c1ccc(Br)cc1)N1CCCC1c1nc2ccccc2s1 (centres undefined)
AC50 [2]: 25.1 µM [rising, single point]

O=C(/C=C/c1ccccc1)NCc1cccnc1
AC50 [1]: 35.5 µM [falling, partial curve, poor fit]

CCn1c2c(c(=O)n3ncc(C(=O)Nc4ccc(C(=O)OC)cc4)c13)CN(Cc1ccc(OC)cc1)CC2
AC50 [1]: 0.0224 µM [falling, full curve, poor fit]

Cc1ccc(NC(=O)C2(c3ccccc3)CCOCC2)cc1
AC50 [1]: 2.82 µM [falling, partial curve, poor fit]
AC50 [2]: 0.316 µM [falling, full curve, poor fit]

COc1ccc(-n2c(=O)c3ccccc3c3ccccc3c2=O)c(OC)c1
AC50 [2]: 6.31 µM [rising, partial curve]

Cc1ccc(NC(=O)C(=O)NCC(c2cccnc2)N2CCN(C)CC2)cc1 (centres undefined)
AC50 [1]: 22.4 µM [falling, single point]
AC50 [2]: 25.1 µM [falling, partial curve]

O=C(NCCc1ccc(Cl)cc1)C(=O)NCC(c1ccco1)S(=O)(=O)c1ccccc1 (centres undefined)
AC50 [1]: 0.891 µM [falling, full curve, poor fit]

FC(F)(F)c1ccc(N2CCN(Cc3ccc4c(c3)OCO4)CC2)nc1
AC50 [2]: 35.5 µM [rising, single point]

C/C(=N\NC(=S)NCCc1ccccc1)c1ccc(C)cc1
AC50 [2]: 35.5 µM [rising, single point]

Cc1nn(-c2ccccc2)c(N)c1Sc1ccc([N+](=O)[O-])cc1
AC50 [2]: 11.2 µM [rising, partial curve]

COCc1ccc2oc(C(=O)O)cc2c1
AC50 [2]: 0.02 µM [falling, full curve, poor fit]

Clc1nc(NCc2ccco2)nc(N2CCCCC2)n1
AC50 [1]: 0.00355 µM [falling, full curve, poor fit]

Cc1ccc(N(CC(O)Cn2nc(C)cc2C)S(=O)(=O)c2ccc3ccccc3c2)cc1 (centres undefined)
AC50 [2]: 35.5 µM [rising, single point]

Cc1c(C(=O)N2CCOCC2)sc2ncnc(N3CCc4ccccc4C3)c12
AC50 [2]: 10 µM [rising, partial curve]

O=c1c(-c2ccc(F)cc2)coc2cc(O)ccc12
AC50 [1]: 11.2 µM [rising, single point]
